# Reference: article PMC11403517
# Sequences of proteins named here, by UniProt entry; tags and fusion partners are left off.
# UniProt Q06330: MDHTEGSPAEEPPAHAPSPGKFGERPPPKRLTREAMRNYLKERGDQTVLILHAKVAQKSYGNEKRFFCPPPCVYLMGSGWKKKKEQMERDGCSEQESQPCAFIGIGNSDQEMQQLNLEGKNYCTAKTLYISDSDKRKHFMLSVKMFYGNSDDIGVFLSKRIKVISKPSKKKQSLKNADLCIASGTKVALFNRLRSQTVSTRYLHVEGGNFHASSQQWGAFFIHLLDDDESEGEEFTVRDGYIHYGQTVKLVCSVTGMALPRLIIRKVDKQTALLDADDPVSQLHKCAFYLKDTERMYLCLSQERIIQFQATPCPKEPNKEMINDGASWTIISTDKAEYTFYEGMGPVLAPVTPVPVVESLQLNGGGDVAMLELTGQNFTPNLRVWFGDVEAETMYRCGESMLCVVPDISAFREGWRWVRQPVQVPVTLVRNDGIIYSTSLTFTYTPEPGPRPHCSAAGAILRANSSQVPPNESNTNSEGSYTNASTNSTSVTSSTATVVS
# No constants are given. Whether binding was seen depends on the method and setting. Binding seen in cells or lysates may run through a third protein. These calls come from enrichment with a bait or labelling near it, and not all partners need be listed.
# Key:
# [1] = target: TurboID-EBNA3A (biotin ligase domain fused to the N-terminus of EBNA3A) (Epstein-Barr virus) (UniProt P12977); assay: proximity labelling; HEK293T cells expressing HA-tagged TurboID-EBNA3A or TurboID-vector control, biotin for the indicated time points; NeutrAvidin precipitation, immunoblotting
# [2] = target: EBNA3A-TurboID (biotin ligase domain fused to the C-terminus of EBNA3A) (Epstein-Barr virus) (UniProt P12977); assay: proximity labelling; HEK293T cells expressing TurboID-E3A or E3A-TurboID, biotin 120 min; biotinylated proteins isolated from lysates by NeutrAvidin precipitation, LC/MS/MS; untransfected cells as control
# [3] = target: TurboID-EBNA3A (biotin ligase domain fused to the N-terminus of EBNA3A) (Epstein-Barr virus) (UniProt P12977); assay: as above
Substance,binding [1],binding [2],binding [3]
CREB binding protein (CBP) (endogenous) (from UniProt Q92793 1-2442),binds,binds,binds
c-terminal-binding protein 2 (CtBP2) (from UniProt P56545 1-445),,binds,binds
histone acetyltransferase P300 (endogenous) (from UniProt Q09472 1-2414),binds,binds,binds
recombination signal binding protein for immunoglobulin kappa J region (RBP-Jκ) (from UniProt Q06330 1-500),,binds,binds
